Taken from: PubChem BioAssay AID743454 (Peter MacCallum Cancer Centre, 2014)
In all, the deposit lists about 18,000 reagents; shown is a random part of them. 450 of them (2.5%) count as active. 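Single biological run; no consistent viability z cut-off exists, so the class columns, not z-scores, define the calls.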

Assay: 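Knock-downs lowering viability or raising caspase 3/7 activity in vorinostat-treated resistant cells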 (primary screen)
Cells: human HCT116-VR colon cancer cells, selected for vorinostat resistance
Knock-down reagent: siRNA pool against human genes, 40 nM siRNA pool
Duration: vorinostat for 24 h, read-out about 72 h after transfection
Treatment: vorinostat at 2.5 µM final
Detection: 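Cell viability by CellTiter-Fluor and caspase 3/7 activity by luminescence, each scaled to mock wells per plate, duplicates averaged, then robust z-scored over all plates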
Reading the numbers: viability robust z-score: higher = more viable cells than screen typical; caspase robust z-score: higher = more caspase 3/7 activity than screen typical
Call rule: 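a knock-down is a hit when classed RV1 or RV2 for lowered viability, or CA1 or CA2 for caspase activation; those lethal without drug were dropped; hits were retested singly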

no.	gene	viability hit class	caspase hit class	viability robust z-score	caspase robust z-score	Call
1	MTRES1	no change	no change	0.6	-0.44	inactive
2	ONECUT2	no change	no change	-0.83	-0.52	inactive
3	ERGIC2	no change	no change	0.85	0.81	inactive
4	CD164L2	no change	no change	0.68	-0.98	inactive
5	GPATCH8	no change	no change	0.57	1.55	inactive
6	CACNG3	no change	no change	-0.29	4.59	inactive
7	SMARCD3	no change	no change	0.18	1.02	inactive
8	USP19	no change	no change	0.74	-1.04	inactive
9	ACVR1C	no change	CA1 (caspase activation)	0.14	5.46	active
10	SLC39A12	no change	no change	-0.15	0.88	inactive
11	RPAP2	RV2 (reduced viability)	CA2 (caspase activation)	-3.15	5.52	active
12	RBM38	no change	no change	-0.4	0.68	inactive
13	FZR1	no change	no change	0.4	0.7	inactive
14	ABCC6	no change	no change	0.56	0.98	inactive
15	PLLP	no change	no change	-0.02	2.21	inactive
16	SLC52A2	no change	no change	0.36	0.96	inactive
17	MZB1	no change	no change	-1.23	2.12	inactive
18	PXN	no change	no change	0.1	-0.82	inactive
19	SLC25A6	no change	no change	0.45	0.12	inactive
20	RGS1	no change	no change	-1.38	1.99	inactive
21	ADAMTS17	no change	no change	-1.25	0.12	inactive
22	PRSS16	no change	no change	0.98	-0.93	inactive
23	SLC60A2	no change	no change	-0.06	1.31	inactive
24	BNC2	no change	no change	0.3	-0.92	inactive
25	RBBP8NL	no change	no change	0.01	4.76	inactive
26	TMEM270	no change	no change	-0.66	2.5	inactive
27	CACNA1F	no change	no change	-1.16	2.67	inactive
28	OR5D16	no change	no change	0.73	-0.76	inactive
29	PSMD2	no change	no change	-6.11	3.09	inactive
30	SORD	no change	no change	-0.44	1.31	inactive
31	SDC2	no change	no change	-0.78	1.01	inactive
32	ARHGAP10	no change	no change	0.59	0.16	inactive
33	PRKAA1	no change	no change	0.86	-0.3	inactive
34	GLRA3	no change	no change	-0.06	-0.2	inactive
35	AGBL3	no change	no change	-0.27	-0.86	inactive
36	CNGB3	no change	no change	0.36	-0.42	inactive
37	CRYBA2	no change	no change	0.36	-0.32	inactive

Active calls, among the entries above:
gene	viability hit class	caspase hit class	viability robust z-score	caspase robust z-score	Call
ACVR1C	no change	CA1 (caspase activation)	0.14	5.46	active
RPAP2	RV2 (reduced viability)	CA2 (caspase activation)	-3.15	5.52	active

Next entries follow:
no.	gene	viability hit class	caspase hit class	viability robust z-score	caspase robust z-score	Call
38	KLF14	no change	no change	-0.18	-0.92	inactive
39	RLIG1	no change	no change	-0.24	1.27	inactive
40	GAB1	no change	no change	-0.79	2.96	inactive
41	KPNA4	no change	no change	-0.38	-0.88	inactive
42	HOXA3	no change	no change	0.38	-0.48	inactive
43	ARFGEF1	no change	no change	0.34	-0.57	inactive
44	MAP3K14	no change	no change	-0.3	0.87	inactive
45	BPIFC	no change	no change	0.12	-0.1	inactive
46	VASN	no change	no change	0.3	-0.5	inactive
47	ME3	no change	no change	0.48	0.11	inactive
48	RASSF2	no change	no change	-2.41	-0.64	inactive
49	NKD2	no change	no change	0.4	-0.24	inactive
50	CS	no change	no change	1.5	-0.42	inactive
51	PSMD5	no change	no change	0.64	-0.8	inactive
52	CYTH3	no change	no change	0	0.36	inactive
53	EI24	no change	no change	0.36	0.3	inactive
54	MTFMT	no change	no change	-1.32	4.42	inactive
55	CD84	no change	no change	0.26	-0.52	inactive
56	MYRF	no change	no change	0.26	-0.22	inactive
57	RHOU	no change	no change	1.79	-0.18	inactive
